Results: PubChem BioAssay AID493014 (National Center for Advancing Translational Sciences (NCATS), 2011)
This is one part of the list. These are further read-outs of the screen, such as a control signal, another cell line or another target. No call is given for them. The list favours compounds with an active or inconclusive main result. Potencies come from curve fits of mixed quality, noted in brackets.

Experiment: qHTS Assay to Find Inhibitors of Chronic Active B-Cell Receptor Signaling
Settings: ABC-DLBCL IkBa-CBG/CBR reporter, luminescence ratio (green luciferase fused to IkBa over red control in TMD8 lymphoma cells), 4 h
In short: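 Concentration-response series (up to 46 uM) were applied to TMD8 dual-reporter cells for 4 h at 37C with doxycycline. Green/red ratio, after filter-overlap correction, defined %Activity; red signal alone was normalised to basal cells and zero luminescence.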

[1] = measured here: CBR red luminescence, cell number
[2] = measured here: IkBa-CBG green luminescence

Structure (SMILES) | AC50 [1] | AC50 [2]
N/C(=N\OC(=O)Cc1ccccc1[N+](=O)[O-])c1cccc(Br)c1 | 2.51 µM [rising, full curve, poor fit] | 
O=C(COC(=O)/C(=C/c1cccs1)c1cccs1)NCc1ccccc1Cl | 29.1 µM [falling, single point] | 
COc1cc(C(=O)NNC(=O)COc2cccc(F)c2)ccc1OCC(=O)N1CCOCC1 | 5.8 µM [rising, full curve, poor fit] | 
CCOc1cc(/C=N/Nc2cccc(C(=O)O)c2)ccc1OC(=O)c1ccccc1 | 3.98 µM [falling, partial curve] | 
CC(=O)Nc1ccc(NC(=O)Nc2cccc(C)c2C)cc1 | 2.82 µM [falling, full curve] | 
CCC(=O)N(C)C(c1ccccc1Cl)c1nnnn1-c1c(C)cccc1C (configuration not stated) | 0.411 µM [falling, partial curve, poor fit] | 
C=C1CCC[C@]2(C)C[C@H]3OC(=O)C(CNCC(OC)OC)[C@H]3CC12 (some centres not stated) | 11.2 µM [falling, partial curve, poor fit] | 
Cc1ccc(OC/C(=N\O)C(C)(C)C)c([N+](=O)[O-])c1 |  | 35.5 µM [falling, partial curve, poor fit]
O=C(Nc1cc(S(=O)(=O)N2CCCCC2)ccc1Cl)c1ccccc1NS(=O)(=O)c1ccc(F)cc1 | 7.31 µM [falling, partial curve] | 
O=C(CNc1ccc2ccccc2c1)N/N=C/c1ccc(C(=O)O)cc1 | 35.5 µM [falling, single point] | 
CCNc1sc(C(=O)c2cccs2)c(N)c1-c1nc2ccccc2s1 | 12.6 µM [falling, partial curve] | 
O=S(=O)(c1ccc2ccccc2c1)N1CCCCC1 | 0.517 µM [rising, full curve, poor fit] | 
CCCCc1nc(S(=O)(=O)c2ccc(Cl)cc2)c(N2CCOCC2)o1 | 3.26 µM [rising, full curve] | 
CCCN(CCC)S(=O)(=O)c1ccc(C(=O)Nc2nc3c(s2)CCc2ccccc2-3)cc1 | 8.2 µM [falling, partial curve] | 
CCOC(=O)N1CCC(Nc2c(Nc3ccc(F)cc3)c(=O)c2=O)CC1 | 3.26 µM [falling, partial curve, poor fit] | 
CCOC(OCC)c1ccc(/C=C\c2nccc(N)n2)cc1 | 2 µM [rising, full curve, poor fit] | 
Cc1cccc(/N=C/c2nc(-c3ccccc3Br)oc2O)n1 | 17.8 µM [falling, single point] | 
COC(CN(C)C(=O)c1ccc2c(c1)NC(=O)c1ccccc1S2)OC | 35.5 µM [falling, single point] | 
CCn1nc(C(=O)Nc2ccccc2N2CCCC2)c2ccccc2c1=O | 10.3 µM [falling, partial curve] | 
COc1cc([C@H]2Oc3c(OC)cc(CCCO[C@@H]4O[C@H](CO)[C@@H](O)[C@H](O)[C@H]4O)cc3[C@@H]2CO)ccc1O | 20.6 µM [rising, single point] | 

Structure (SMILES) | AC50 [1] | AC50 [2]
O=C(NNC(=S)Nc1ccc(Cl)cc1)c1cccs1 | 7.94 µM [falling, partial curve] | 
CCN1CCN(CCNC(=O)c2ccc(/C=C3/Sc4ccccc4N(Cc4ccccc4C)C3=O)cc2)CC1 | 35.5 µM [falling, single point] | 
CCc1nnc(NC(=S)Nc2ccccc2)s1 | 2.24 µM [falling, full curve] | 3.55 µM [falling, partial curve, poor fit]
CC(C)CC(=O)NC(=S)Nc1nc(-c2ccc(Cl)cc2)cs1 | 20.6 µM [rising, single point] | 
CC(C)Oc1ccc(Br)cc1/C=N\NC(N)=S | 18.4 µM [falling, partial curve, poor fit] | 
Cc1ccc(Cn2c(C(=O)O)cc3sccc32)cc1 | 14.6 µM [falling, partial curve, poor fit] | 
COc1ccc(NC(=S)N2CCCC2c2ccc(OC)c(OC)c2)cc1 (configuration not stated) | 0.708 µM [rising, full curve, poor fit] | 
Fc1ccc(C2CCCCN2Cc2nc(CC3CC3)no2)cc1 (configuration not stated) | 3.98 µM [rising, full curve, poor fit] | 
O=C(/C=C/c1ccccc1)c1ccc2c(c1)OCCCCO2 | 28.2 µM [falling, single point] | 
O=c1cc(O)nc(-c2ccccc2)s1 | 14.1 µM [falling, single point] | 
Cc1[nH]c2ccc(CNS(=O)(=O)c3ccc(S(=O)(=O)N4CCOCC4)cc3)cc2c1C | 5.17 µM [rising, full curve, poor fit] | 
Cc1ccc(NC(=S)c2nc3ccccc3[nH]2)c(C)c1 |  | 18.4 µM [rising, partial curve, poor fit]
O=[N+]([O-])c1ncccc1OCc1ccc(-c2ccccc2)cc1 | 2 µM [rising, full curve, poor fit] | 
COc1ccc(C(C#N)(CC(=O)O)c2cnccn2)cc1OC (configuration not stated) | 4.11 µM [rising, full curve, poor fit] | 
Cc1ccoc1C(=O)Nc1ccc(CC(=O)O)cc1 | 2.06 µM [rising, partial curve] | 
CCOC(=O)/C=C1\SCC(=O)N1CC(=O)c1ccc[nH]1 | 1.12 µM [rising, partial curve, poor fit] | 
NS(=O)(=O)c1ccc(NC(=O)CCC(=O)c2ccc(Cl)s2)cc1 | 8.91 µM [rising, partial curve, poor fit] | 
Cc1cc(C)nc(NS(=O)(=O)c2ccc(NC(=O)c3cc(=O)c4ccccc4o3)cc2)n1 | 10 µM [rising, partial curve] | 14.1 µM [falling, partial curve, poor fit]
Oc1ccccc1C1NN=C(c2ccccc2)S1 (configuration not stated) | 3.55 µM [falling, full curve] | 
COc1cccc(C(=O)Nc2ccc3c(c2)n(C)c(=O)n3C)c1 | 25.1 µM [falling, partial curve] | 

Quoted from the results shown, 3 compounds:
Structure (SMILES) | AC50 [1] | AC50 [2]
CC(C)Oc1ccc(Br)cc1/C=N\NC(N)=S | 18.4 µM [falling, partial curve, poor fit] | 
Cc1ccc(Cn2c(C(=O)O)cc3sccc32)cc1 | 14.6 µM [falling, partial curve, poor fit] | 
COc1ccc(NC(=S)N2CCCC2c2ccc(OC)c(OC)c2)cc1 (configuration not stated) | 0.708 µM [rising, full curve, poor fit] | 
